Values quoted from earlier work in patent publication US20170065561A1, “METHODS OF CANCER THERAPY” (CAMBRIDGE ENTERPRISE LIMITED, priority 2014, published 2017).

Test system: wild type C57BL/6 mice
Conditions: rising doses (600 to 2400 mg/kg) for four months; cited from earlier work

CCCCN1C[C@H](O)[C@@H](O)[C@H](O)[C@H]1CO [N-butyldeoxynojirimycin]
ratio of B to T cell populations in spleens and thymuses: small decrease | size of lymphoid organs: reduced the size of lymphoid organs
